Measurements taken from patent US20070016978A1, “PLANTS HAVING AN ENHANCED RESISTANCE TO NECROTROPHIC PATHOGENS AND METHOD OF MAKING SAME” (priority 2005, published 2007).

Assay: Lipid profile and total lipid content after glycerol application
Assay type: in vivo, Arabidopsis

## OCC(O)CO [glycerol]
glycerol-treated wt plants
  PA levels: marginal reduction in PA levels
Wt plants upon glycerol application
  total lipids: 164 nmoles of lipids per mg dry weight
Wt plants, glycerol application
  levels of leaf MGDG and DGDG: decline in the levels of leaf MGDG and DGDG

No dose or concentration is given here for some results.
